# Cleaved PARP in drug-treated melanoma cells

Source: doi:10.1371/journal.pone.0140310, primary screening data, rounded.

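The test systems are human melanoma cell lines, treated with two drugs together for 72 h and then stained and imaged. Values are the share of nuclei positive for cleaved PARP as a percentage of the same share in the DMSO control: 100 is the control level, higher means more apoptosis. Every drug was used at one fixed concentration, the higher of two screened. The file gives one value for each pair and line, without errors, so small differences may be noise. The marker varies much from line to line, for technical or biological reasons.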 This is part of the screen, not chosen by result.

All values are for the listed drug together with dasatinib (0.02 µM): Cc1nc(Nc2ncc(C(=O)Nc3c(C)cccc3Cl)s2)cc(N2CCN(CCO)CC2)n1

| Second drug | SK-MEL-5 |
|---|---|
| C[C@]1(O)C[C@@H](c2nc(-c3ccc4ccc(-c5ccccc5)nc4c3)c3c(N)nccn32)C1 at 2 µM | 244 |
| N#CC[C@H](C1CCCC1)n1cc(-c2ncnc3[nH]ccc23)cn1 at 5 µM | 203 |
| Cn1cc(/C=C2\C(=O)Nc3cccnc32)c2ccccc21 at 2 µM | 181 |
| O=S(=O)(c1ccccc1)N(CC(F)(F)F)c1ccc(C(O)(C(F)(F)F)C(F)(F)F)cc1 at 7 µM | 123 |
| Cc1cc(SCc2sc(-c3ccc(C(F)(F)F)c(F)c3)nc2C)ccc1OCC(=O)O at 10 µM | 128 |
| CC(C)C[C@H](NC(=O)[C@H](Cc1ccccc1)NC(=O)c1cnccn1)B(O)O at 0.005 µM | 647 |
| Nc1nc(F)nc2c1ncn2[C@@H]1O[C@H](CO)[C@@H](O)[C@@H]1O at 1 µM | 1640 |
| Cn1nnc2c(C(N)=O)ncn2c1=O at 10 µM | 77.8 |
| NC(=O)Nc1cc(-c2cccc(F)c2)sc1C(=O)N[C@H]1CCCNC1 at 0.1 µM | 92.0 |
| CCN(CC)CCNC(=O)c1c(C)[nH]c(/C=C2\C(=O)Nc3ccc(F)cc32)c1C at 2 µM | 78.4 |
| CCCCCCCCCCCCCCCCCCOP(=O)([O-])OC1CC[N+](C)(C)CC1 at 2 µM | 128 |
| CN1CCN(c2ccc3nc(-c4c(N)c5c(F)cccc5[nH]c4=O)[nH]c3c2)CC1 at 0.5 µM | 132 |
| C=C(c1ccc(C(=O)O)cc1)c1cc2c(cc1C)C(C)(C)CCC2(C)C at 10 µM | 30.7 |
| Cc1cc(Nc2cc(N3CCN(C)CC3)nc(/C=C/c3ccccc3)n2)n[nH]1 at 0.2 µM | 192 |
| O=C(O)c1ccc(-c2c[nH]c3ncc(-c4ccccc4)cc23)cc1C1CCCC1 at 0.8 µM | 28.1 |

Repeated from the top, 2 entries:

Second drug,SK-MEL-5
C[C@]1(O)C[C@@H](c2nc(-c3ccc4ccc(-c5ccccc5)nc4c3)c3c(N)nccn32)C1 at 2 µM,244
N#CC[C@H](C1CCCC1)n1cc(-c2ncnc3[nH]ccc23)cn1 at 5 µM,203